US20100216772A1, “Novel Phenantridine Analogues and Uses Thereof” (priority 2004, published 2010)
Some entries share one result that the patent states for a list of compounds. At least one compound was matched to its structure with a doubt left.

Test system: HaCaT keratinocytes
Assay: Influence of compounds on keratinocyte proliferation (Cell Titer Viability Assay)
Type: cell-based
Conditions: 25 μM test compound, 48 hrs, compared to control experiments
Method: 5×10^3 HaCaT keratinocytes were seeded into 60 wells of 96 well plates in 200 μl KBM/10% FCS and incubated for 24 hrs at 37° C. The test compounds were dissolved at 100 mM in DMSO. The test items were then diluted to a concentration of 25 μM in KBM/FCS with a final concentration of 1% DMSO. The test compounds, as well as the negative control for unstimulated cells (KBM/1% DMSO) and stimulated cells (KBM/FCS/1% DMSO), were added to the HaCaTs in triplicates and incubated for 48 hrs. At the end of the incubation period, the media was removed and cell numbers were determined with Cell Titer Viability Assay from Promega (#G7571/G7572) according to the manufacturer's instructions.

COc1cccc(C(=O)N2c3ccccc3-c3ccccc3C2c2c[nH]c3ccccc23)c1 (stereo not shown) [Example 11]
inhibition of keratinocyte proliferation: more than 50%
